Results: the supplement of paper PMC11006884
This list holds what a sample rich in targets with a hit left over. The data scatter; read single values as rough. The entries are a selection whose mix differs from that of the whole data set.

The chains behind the UniProt entries cited, without tags or fusion partners. Where a name states a change or a piece, a line headed by the entry shows the natural chain unless it says otherwise.
UniProt P55795: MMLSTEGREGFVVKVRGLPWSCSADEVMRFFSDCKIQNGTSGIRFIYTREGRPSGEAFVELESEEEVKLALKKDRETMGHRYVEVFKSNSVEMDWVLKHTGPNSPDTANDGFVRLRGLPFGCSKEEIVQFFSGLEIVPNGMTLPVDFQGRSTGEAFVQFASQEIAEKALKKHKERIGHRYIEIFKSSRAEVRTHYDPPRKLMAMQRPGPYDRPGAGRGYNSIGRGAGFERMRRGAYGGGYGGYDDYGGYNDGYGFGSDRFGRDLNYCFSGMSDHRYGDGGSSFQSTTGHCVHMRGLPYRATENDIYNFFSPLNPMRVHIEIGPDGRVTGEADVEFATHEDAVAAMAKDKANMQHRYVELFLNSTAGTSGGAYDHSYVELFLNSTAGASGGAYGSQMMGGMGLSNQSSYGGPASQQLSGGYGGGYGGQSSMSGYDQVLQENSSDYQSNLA
UniProt P52888, whole entry, looked up: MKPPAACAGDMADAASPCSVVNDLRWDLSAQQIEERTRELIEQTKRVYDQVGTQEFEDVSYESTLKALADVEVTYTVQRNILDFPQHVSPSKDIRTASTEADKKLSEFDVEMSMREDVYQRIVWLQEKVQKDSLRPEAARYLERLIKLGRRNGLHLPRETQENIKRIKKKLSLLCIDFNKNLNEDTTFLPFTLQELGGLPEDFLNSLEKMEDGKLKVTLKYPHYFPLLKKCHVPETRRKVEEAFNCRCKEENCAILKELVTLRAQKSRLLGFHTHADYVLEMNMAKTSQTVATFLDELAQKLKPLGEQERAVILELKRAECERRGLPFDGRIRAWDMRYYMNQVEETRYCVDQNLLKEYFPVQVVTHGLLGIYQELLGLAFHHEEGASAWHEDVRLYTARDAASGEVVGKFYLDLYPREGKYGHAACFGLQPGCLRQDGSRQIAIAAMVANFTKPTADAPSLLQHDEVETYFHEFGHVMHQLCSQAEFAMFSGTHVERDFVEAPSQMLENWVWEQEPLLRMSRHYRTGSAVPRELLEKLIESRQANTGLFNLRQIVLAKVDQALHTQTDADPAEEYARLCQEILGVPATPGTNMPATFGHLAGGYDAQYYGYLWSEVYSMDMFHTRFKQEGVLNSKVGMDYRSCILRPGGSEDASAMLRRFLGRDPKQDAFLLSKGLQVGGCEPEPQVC
UniProt P55265: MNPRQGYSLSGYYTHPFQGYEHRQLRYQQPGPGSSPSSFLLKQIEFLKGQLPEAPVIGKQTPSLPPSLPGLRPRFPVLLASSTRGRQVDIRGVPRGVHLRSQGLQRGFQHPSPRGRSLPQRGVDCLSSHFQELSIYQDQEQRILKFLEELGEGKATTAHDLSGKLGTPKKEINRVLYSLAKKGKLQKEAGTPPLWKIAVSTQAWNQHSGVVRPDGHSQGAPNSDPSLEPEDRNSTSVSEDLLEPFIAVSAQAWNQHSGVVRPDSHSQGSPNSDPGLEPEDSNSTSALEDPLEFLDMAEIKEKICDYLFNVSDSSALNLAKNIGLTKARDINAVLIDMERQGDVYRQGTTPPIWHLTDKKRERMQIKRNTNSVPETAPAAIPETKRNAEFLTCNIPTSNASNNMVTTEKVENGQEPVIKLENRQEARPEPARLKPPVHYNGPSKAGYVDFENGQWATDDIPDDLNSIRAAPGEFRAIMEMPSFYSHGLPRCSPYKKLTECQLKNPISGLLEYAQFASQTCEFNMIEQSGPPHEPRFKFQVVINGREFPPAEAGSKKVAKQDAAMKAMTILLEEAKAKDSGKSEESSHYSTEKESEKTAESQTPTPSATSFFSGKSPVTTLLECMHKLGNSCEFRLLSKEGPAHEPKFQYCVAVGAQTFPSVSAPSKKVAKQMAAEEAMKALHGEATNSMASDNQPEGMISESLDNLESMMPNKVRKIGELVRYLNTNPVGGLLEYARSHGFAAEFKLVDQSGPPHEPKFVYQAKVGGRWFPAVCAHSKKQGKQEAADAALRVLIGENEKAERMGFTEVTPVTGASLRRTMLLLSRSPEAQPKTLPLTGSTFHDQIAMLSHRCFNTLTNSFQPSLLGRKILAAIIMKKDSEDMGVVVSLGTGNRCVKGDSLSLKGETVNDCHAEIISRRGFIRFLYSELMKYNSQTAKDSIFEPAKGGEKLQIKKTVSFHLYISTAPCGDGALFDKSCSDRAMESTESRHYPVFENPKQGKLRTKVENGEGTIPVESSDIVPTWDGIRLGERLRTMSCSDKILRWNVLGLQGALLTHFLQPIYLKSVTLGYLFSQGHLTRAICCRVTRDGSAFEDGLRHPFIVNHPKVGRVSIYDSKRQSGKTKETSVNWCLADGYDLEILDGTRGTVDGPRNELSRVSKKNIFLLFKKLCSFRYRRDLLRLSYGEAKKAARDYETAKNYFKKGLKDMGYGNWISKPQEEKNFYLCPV
UniProt P61619, whole entry: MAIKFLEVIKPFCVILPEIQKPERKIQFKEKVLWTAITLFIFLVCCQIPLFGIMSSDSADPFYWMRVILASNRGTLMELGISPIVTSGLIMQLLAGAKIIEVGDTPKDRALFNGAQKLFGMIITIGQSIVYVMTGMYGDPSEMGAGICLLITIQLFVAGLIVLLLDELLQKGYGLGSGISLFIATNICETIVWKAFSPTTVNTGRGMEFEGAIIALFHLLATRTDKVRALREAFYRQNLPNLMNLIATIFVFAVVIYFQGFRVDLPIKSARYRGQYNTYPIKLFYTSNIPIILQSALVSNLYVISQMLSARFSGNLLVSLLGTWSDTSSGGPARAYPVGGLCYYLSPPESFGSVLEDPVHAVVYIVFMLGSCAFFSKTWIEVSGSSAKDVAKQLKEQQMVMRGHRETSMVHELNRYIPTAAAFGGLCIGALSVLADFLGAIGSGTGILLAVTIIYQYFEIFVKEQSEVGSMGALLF
UniProt P52209: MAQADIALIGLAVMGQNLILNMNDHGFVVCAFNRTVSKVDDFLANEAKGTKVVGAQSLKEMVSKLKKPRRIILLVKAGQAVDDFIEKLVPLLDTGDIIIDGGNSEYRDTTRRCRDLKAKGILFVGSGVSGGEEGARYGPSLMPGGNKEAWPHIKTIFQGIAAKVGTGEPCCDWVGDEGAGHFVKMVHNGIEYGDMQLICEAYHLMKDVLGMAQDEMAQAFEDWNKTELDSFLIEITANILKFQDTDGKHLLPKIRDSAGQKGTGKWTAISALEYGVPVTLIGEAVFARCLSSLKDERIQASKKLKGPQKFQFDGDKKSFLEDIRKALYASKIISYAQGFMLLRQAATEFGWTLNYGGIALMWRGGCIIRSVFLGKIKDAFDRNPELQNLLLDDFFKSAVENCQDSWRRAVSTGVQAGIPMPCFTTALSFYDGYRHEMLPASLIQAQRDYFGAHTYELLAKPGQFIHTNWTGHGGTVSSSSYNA
UniProt P52564: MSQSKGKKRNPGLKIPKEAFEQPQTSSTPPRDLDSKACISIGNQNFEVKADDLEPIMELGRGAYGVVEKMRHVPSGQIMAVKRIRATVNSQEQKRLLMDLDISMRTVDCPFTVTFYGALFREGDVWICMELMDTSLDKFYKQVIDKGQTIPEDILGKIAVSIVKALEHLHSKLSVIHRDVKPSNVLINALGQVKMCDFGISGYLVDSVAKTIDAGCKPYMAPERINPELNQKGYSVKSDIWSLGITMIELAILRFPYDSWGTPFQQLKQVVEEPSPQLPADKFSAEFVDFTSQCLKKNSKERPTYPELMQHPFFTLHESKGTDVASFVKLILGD
UniProt P55769: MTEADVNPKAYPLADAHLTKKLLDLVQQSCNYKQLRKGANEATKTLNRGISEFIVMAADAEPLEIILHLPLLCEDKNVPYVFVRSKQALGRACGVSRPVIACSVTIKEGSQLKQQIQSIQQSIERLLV
UniProt P52756, whole entry: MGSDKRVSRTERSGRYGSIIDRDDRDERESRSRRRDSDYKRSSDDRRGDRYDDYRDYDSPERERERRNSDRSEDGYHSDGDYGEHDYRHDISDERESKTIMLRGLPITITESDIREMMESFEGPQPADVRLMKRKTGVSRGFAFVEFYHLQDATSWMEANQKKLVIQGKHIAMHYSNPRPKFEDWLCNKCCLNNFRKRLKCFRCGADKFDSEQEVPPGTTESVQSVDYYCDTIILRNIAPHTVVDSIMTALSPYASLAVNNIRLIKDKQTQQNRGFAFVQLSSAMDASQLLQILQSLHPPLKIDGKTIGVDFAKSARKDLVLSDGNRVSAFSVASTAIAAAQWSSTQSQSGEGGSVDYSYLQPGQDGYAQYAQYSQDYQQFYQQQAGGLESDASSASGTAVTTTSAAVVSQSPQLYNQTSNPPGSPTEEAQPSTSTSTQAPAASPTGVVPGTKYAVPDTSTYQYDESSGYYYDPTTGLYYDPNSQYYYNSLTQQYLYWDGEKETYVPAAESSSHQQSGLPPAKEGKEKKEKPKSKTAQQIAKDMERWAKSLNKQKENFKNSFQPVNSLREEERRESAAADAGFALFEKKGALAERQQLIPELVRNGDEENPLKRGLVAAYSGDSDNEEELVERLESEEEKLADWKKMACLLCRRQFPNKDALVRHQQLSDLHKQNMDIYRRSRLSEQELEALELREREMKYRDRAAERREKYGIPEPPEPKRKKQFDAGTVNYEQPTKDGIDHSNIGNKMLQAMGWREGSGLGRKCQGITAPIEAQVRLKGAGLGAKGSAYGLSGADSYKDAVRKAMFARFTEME
UniProt P60981: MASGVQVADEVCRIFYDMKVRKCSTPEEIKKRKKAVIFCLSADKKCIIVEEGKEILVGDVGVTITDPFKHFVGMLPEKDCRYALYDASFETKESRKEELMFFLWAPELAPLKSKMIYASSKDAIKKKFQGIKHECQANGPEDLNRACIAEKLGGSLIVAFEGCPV
UniProt P52597: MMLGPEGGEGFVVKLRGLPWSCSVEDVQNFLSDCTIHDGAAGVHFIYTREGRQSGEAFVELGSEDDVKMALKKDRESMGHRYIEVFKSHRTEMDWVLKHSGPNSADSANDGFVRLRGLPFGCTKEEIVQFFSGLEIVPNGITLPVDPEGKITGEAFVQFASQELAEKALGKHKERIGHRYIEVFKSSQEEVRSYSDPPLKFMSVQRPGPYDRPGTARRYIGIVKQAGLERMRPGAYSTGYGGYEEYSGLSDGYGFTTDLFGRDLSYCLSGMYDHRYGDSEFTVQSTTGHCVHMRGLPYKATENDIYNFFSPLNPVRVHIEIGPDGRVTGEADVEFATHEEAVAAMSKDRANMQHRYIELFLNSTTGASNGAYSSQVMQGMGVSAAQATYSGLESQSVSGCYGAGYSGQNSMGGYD
UniProt P53701: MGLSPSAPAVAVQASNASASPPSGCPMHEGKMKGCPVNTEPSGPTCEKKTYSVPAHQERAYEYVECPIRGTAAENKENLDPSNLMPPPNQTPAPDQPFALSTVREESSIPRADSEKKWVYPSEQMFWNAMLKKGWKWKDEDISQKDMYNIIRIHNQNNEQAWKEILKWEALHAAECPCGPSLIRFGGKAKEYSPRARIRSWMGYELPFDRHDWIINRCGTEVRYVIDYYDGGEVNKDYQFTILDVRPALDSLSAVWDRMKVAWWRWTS
UniProt P53992: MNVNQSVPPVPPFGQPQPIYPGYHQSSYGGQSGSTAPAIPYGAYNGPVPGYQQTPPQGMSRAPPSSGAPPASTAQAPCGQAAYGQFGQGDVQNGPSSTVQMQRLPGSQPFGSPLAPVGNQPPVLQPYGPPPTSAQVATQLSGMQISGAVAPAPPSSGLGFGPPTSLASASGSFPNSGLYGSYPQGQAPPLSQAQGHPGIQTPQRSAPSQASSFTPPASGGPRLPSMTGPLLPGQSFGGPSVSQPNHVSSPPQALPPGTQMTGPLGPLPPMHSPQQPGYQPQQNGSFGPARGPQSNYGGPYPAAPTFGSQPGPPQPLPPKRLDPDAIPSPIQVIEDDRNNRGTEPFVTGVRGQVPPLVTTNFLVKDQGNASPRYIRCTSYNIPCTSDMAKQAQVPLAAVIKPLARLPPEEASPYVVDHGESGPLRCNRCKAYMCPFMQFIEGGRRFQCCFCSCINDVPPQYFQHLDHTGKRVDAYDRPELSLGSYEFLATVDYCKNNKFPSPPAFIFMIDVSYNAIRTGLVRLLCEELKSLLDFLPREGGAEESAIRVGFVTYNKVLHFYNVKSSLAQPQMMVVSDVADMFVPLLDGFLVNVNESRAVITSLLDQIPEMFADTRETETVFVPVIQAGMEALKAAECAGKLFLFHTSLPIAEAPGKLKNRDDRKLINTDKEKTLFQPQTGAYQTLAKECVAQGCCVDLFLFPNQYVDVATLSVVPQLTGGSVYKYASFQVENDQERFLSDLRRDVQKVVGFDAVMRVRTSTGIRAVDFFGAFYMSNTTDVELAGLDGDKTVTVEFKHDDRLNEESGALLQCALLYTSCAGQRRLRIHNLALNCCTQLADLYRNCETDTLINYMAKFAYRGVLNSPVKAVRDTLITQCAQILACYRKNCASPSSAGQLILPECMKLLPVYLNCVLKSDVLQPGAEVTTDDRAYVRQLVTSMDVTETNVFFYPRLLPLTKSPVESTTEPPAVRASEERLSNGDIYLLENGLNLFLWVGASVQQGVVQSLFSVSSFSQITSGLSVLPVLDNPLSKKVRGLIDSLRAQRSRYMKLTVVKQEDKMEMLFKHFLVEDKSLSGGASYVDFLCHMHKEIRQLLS

compound: COC(=O)/C=C/c1ccccc1 [methyl cinnamate]; assay: log2 ratio of iodoacetamide-alkyne labeling of the cysteine site, DMSO over compound (competition); higher = stronger covalent engagement of the cysteine by the compound, active = 1 or more; details: 500 µM; treatment time 1 h; system: HEK293T cell lysate
In short: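 Reporter intensities give each cysteine's log2 competition ratio as the mean of control channels over the mean of compound channels. The samples were HEK293T lysate (2 mg/mL) given vehicle or electrophile (500 µM, 1 h, ambient temperature), then iodoacetamide alkyne (1 h), followed by click coupling to sCIP-TMT reagents, pooling, trypsin digestion overnight at 37 °C, streptavidin enrichment, acid elution, Orbitrap Eclipse LC-MS/MS with FAIMS and FragPipe quantification. Duplicate channels and three replicates were run, and cysteines quantified in only one replicate were discarded.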

log2 ratio of iodoacetamide-alkyne labeling, inactive:
HNRNPH2 C267 (UniProt P55795) -0.0544
UniProt P62249_C25 0.2
THOP1 C682 (UniProt P52888) 0.378
KIF11 C911 (UniProt P52732) -0.172
ADAR C304 (UniProt P55265) 0.178
UniProt P61619_C13 -0.459
NUP98 C1027 (UniProt P52948) 0.34
ADAR C392 (UniProt P55265) 0.174
PGD C289 (UniProt P52209) 0.183
UniProt P52564_C196 0.244
UniProt P55769_C93 0.229
CTBP2 C140 (UniProt P56545) -0.259
ADAR C649 (UniProt P55265) 0.091
UniProt P61077_C107 -0.0973
EIF6 C11 (UniProt P56537) 0.211
RBM5 C766 (UniProt P52756) 0.298
DSTN C147 (UniProt P60981) -0.178
HNRNPF C267 (UniProt P52597) 0.256
HCCS C46 (UniProt P53701) 0.335
RAP1GDS1 C144 (UniProt P52306) 0.388
SEC24C C433 (UniProt P53992) 0.443
ACTR3 C34 (UniProt P61158) 0.0744

Fetched one by one from above, 2 records:
log2 ratio of iodoacetamide-alkyne labeling, inactive:
ADAR C649 (UniProt P55265) 0.091
SEC24C C433 (UniProt P53992) 0.443
